{"source": "PubChem BioAssay AID504834", "about": "(National Center for Advancing Translational Sciences (NCATS), 2011)", "note": "Out of some 320,000 compounds screened, about 22,000 (6.9%) were called active. Inconclusive means that the source gave no clear call. Such entries were picked first, then a sample of the others. Calls come from the whole dose curve; as a rule, active = well fitted inhibition curve with a large enough effect; inconclusive = small, poorly fitted or top-dose-only effect, or another doubt; inactive = no such curve, though single readings can be large or run the other way. A potency beside an inconclusive call is a rough fit, not a confirmed value. % is set by controls: 0 for no effect and ±100 for the full control effect; potency is the fitted concentration of half-maximal effect."}
{"experiment": "Primary qHTS for delayed death inhibitors of the malarial parasite plastid, 96 hour incubation", "details": "P. falciparum luciferase reporter growth; series mostly up to 28.7 µM", "procedure,_shortened": "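Two-generation exposure (96 h) targets delayed-death phenotype. Reporter parasites carrying integrated firefly luciferase, in red cells at 2% hematocrit and 0.05% parasitemia final, kept at 37 C, 5% CO2; luminescence loss indicates inhibition.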"}
{"compound": "COc1ccc(N(CC(=O)NCCSC2CCCCC2)S(=O)(=O)c2ccccc2)cc1OC", "Potency": "inconclusive: 9.28 µM [inhibitor, partial curve, poor fit]"}
{"compound": "Cc1ccc(C23CC4CC(CC(NC(=O)NN)(C4)C2)C3)cc1", "Potency": "inactive"}
{"compound": "N#Cc1nc(Cc2cccc3ccccc23)oc1N1CCC(C(N)=O)CC1", "Potency": "inconclusive: 0.828 µM [inhibitor, full curve, poor fit]"}
{"compound": "CCN1C(=O)[C@H]2[C@@H](c3ccc(-c4ccc(C(C)=O)cc4)c(OC)c3)N[C@@](Cc3ccccc3)(C(=O)OC)[C@H]2C1=O", "Potency": "active: 9.28 µM"}
{"compound": "CCCn1c(NCc2c[nH]c3ccccc23)nc2ccccc21", "Potency": "inconclusive: 18.5 µM [inhibitor, single point]"}
{"compound": "O=C(c1ccc(OC2CCN(CCc3ccccc3)CC2)cc1)N1CCC(CO)CC1", "Potency": "inconclusive: 18.5 µM [inhibitor, single point]"}
{"compound": "CCCCCCCCCCOC(=O)Cn1c(COc2cccc(OC)c2)[n+](C)c2ccccc21", "Potency": "active: 3.29 µM"}
{"compound": "CC(C)c1c(C(=O)N/N=C/c2cccc3ccccc23)nnn1-c1nonc1N", "Potency": "inconclusive: 18.5 µM [inhibitor, single point]"}
{"compound": "Cc1ccc(Sc2ncccc2C(=O)N(C)Cc2cccs2)c(C)c1", "Potency": "inconclusive: 5.22 µM [inhibitor, partial curve]"}
{"compound": "COc1cccc(NS(=O)(=O)c2ccc3c(c2)NC(=O)C(C)C(=O)N3)c1", "note": "(stereo not given)", "Potency": "inconclusive: 1.31 µM [inhibitor, full curve]"}
{"compound": "Cc1ccc2c(c1)N1C(=O)c3ccccc3C1C1=C(CC(C)(C)CC1=O)N2", "note": "(stereo not given)", "Potency": "inactive"}
{"compound": "CCOC(=O)C1CCN(C(=O)Cc2c(C(=O)O)[nH]c3ccccc23)CC1", "Potency": "inconclusive: 9.28 µM [inhibitor, single point]"}
{"compound": "COc1cccc(N=C(N)N)c1", "Potency": "inactive"}
{"compound": "COC(=O)c1cc(CN2CCN(c3ccccc3C)CC2)ccc1O", "Potency": "inconclusive: 18.5 µM [inhibitor, single point]"}
{"compound": "CC1(c2ccc(Cl)cc2)NC(=O)N(CC(=O)NCCC2=CCCCC2)C1=O", "note": "(stereo not given)", "Potency": "inconclusive: 14.7 µM [inhibitor, partial curve, poor fit]"}
{"compound": "Cc1cc(CNC(=O)CCc2nnc(CCCc3ccccc3)o2)nn1C", "Potency": "inconclusive: 3.7 µM [inhibitor, full curve]"}
{"compound": "Cn1cccc1C(=O)N/N=C/c1c(Cl)cccc1Cl", "Potency": "inactive"}
{"compound": "CCCN(CCC)CCNC(=O)c1cc2c(=O)n(CC)c3ccccc3c2s1", "Potency": "inconclusive: 18.5 µM [inhibitor, single point]"}
{"compound": "O=C(NCc1ccc2c(c1)OCO2)C(=O)NCC1OCCN1S(=O)(=O)c1ccc(Cl)cc1", "note": "(stereo not given)", "Potency": "inconclusive: 10.4 µM [inhibitor, partial curve, poor fit]"}
{"compound": "Cc1ccc(-n2nc3c(=O)n(CC(=O)NCc4ccccc4Cl)nc(C)c3c2C)cc1", "Potency": "inconclusive: 11.7 µM [inhibitor, partial curve, poor fit]"}
{"compound": "Cc1ccccc1S(=O)(=O)Cc1ccc(C(=O)NCc2cccs2)o1", "Potency": "inconclusive: 1.65 µM [inhibitor, full curve, poor fit]"}
{"compound": "CCc1ccc2c(Cl)c(C(=O)N/N=C/c3c[nH]c4ccccc34)sc2c1", "Potency": "inconclusive: 14.7 µM [inhibitor, single point]"}
{"compound": "CCN1CCc2nc3ccccc3c(C(=O)Nc3ccc(NC(C)=O)cc3)c2C1", "Potency": "inactive"}
{"compound": "CC(NC(=O)C1CCN(C(=O)Nc2ccccc2)CC1)c1ccc(Cl)cc1", "note": "(stereo not given)", "Potency": "inactive"}
{"compound": "Cc1ccc(NC(=O)CSc2nc(O)c(Cc3ccccc3)c(=O)n2-c2ccccc2)cc1", "Potency": "inconclusive: 18.5 µM [inhibitor, single point]"}
{"compound": "CCCc1cc(=O)n2[nH]c(-c3ccc(Br)cc3)cc2n1", "Potency": "inconclusive: 10.4 µM [inhibitor, partial curve, poor fit]"}
{"compound": "CCCC[C@H](CC)CN1CN(C[C@@H](CC)CCCC)CC(C)(N)C1", "Potency": "inconclusive: 6.42 µM [inhibitor, partial curve]"}
{"compound": "O=C(CCc1nnc2ccc(NCc3ccccc3)nn12)NCC1CCN(C2CCCC2)C1", "note": "(stereo not given)", "Potency": "inconclusive: 18.5 µM [inhibitor, single point]"}
{"compound": "CC(N=c1ccccn1C(=O)Nc1ccc(F)cc1)c1ccco1", "note": "(stereo not given)", "Potency": "inconclusive: 1.04 µM [inhibitor, partial curve]"}
{"compound": "COc1ccccc1C(CCNCc1ccccc1)c1ccc(OC(C)C)cc1", "note": "(stereo not given)", "Potency": "inconclusive: 11.7 µM [inhibitor, single point]"}
{"compound": "O=C(c1cc(-c2ccccc2)nc2ccccc12)N1CCc2ccccc2C1", "Potency": "inconclusive: 18.5 µM [inhibitor, single point]"}
{"compound": "O=C(Nc1cccc(Cl)c1)Nc1nnc(-c2ccncc2)s1", "Potency": "active: 5.22 µM"}
{"compound": "Cc1ccc(CNS(=O)(=O)c2ccc3oc(C(=O)O)c(C)c3c2)cc1", "Potency": "inconclusive: 0.104 µM [inhibitor, full curve, poor fit]"}
{"compound": "O=C(NCCCN1CCCC1=O)c1cccc(S(=O)(=O)Nc2ccc(Br)cc2)c1", "Potency": "inconclusive: 9.28 µM [inhibitor, partial curve]"}
{"compound": "Cc1ccc(C)c(N(CC(=O)NCc2ccco2)C(=O)CCC(=O)Nc2ccccn2)c1", "Potency": "inconclusive: 5.22 µM [inhibitor, partial curve]"}
{"compound": "Cc1ccc2cc(CCNC(=O)c3cc4ccccc4o3)c(=O)[nH]c2c1C", "Potency": "inconclusive: 1.65 µM [inhibitor, full curve, poor fit]"}
{"compound": "Cc1nc(-c2ccncc2)sc1C(=O)Nc1ccc(Br)cc1", "Potency": "inactive"}
{"compound": "Cc1cccc(NC(=S)N(Cc2ccc(Br)cc2)Cc2ccc(C(=O)O)cc2)c1", "Potency": "inconclusive: 1.47 µM [inhibitor, full curve, poor fit]"}
{"compound": "CC(C)c1ccc(OCC(=O)Nc2c3c(nn2C(C)(C)C)CS(=O)(=O)C3)cc1", "Potency": "inconclusive: 18.5 µM [inhibitor, single point]"}
{"compound": "CCC(Sc1ccc(C(=O)O)cc1)C(=O)O", "note": "(stereo not given)", "Potency": "inconclusive: 10.4 µM [inhibitor, single point]"}
{"compound": "N#CC(C#N)=Cc1ccc(-c2ccc(S(=O)(=O)N=C(N)N)cc2)o1", "Potency": "inconclusive: 13.1 µM [inhibitor, single point]"}
{"compound": "COc1cccc(C(C(=O)NC2CCCC2)N(Cc2cccnc2)C(=O)Cc2cccs2)c1", "note": "(stereo not given)", "Potency": "inconclusive: 13.1 µM [inhibitor, single point]"}
{"compound": "COc1ccc(-n2c(-c3ccc(Cl)cc3)c[nH]c2=S)cc1", "Potency": "inconclusive: 13.1 µM [inhibitor, single point]"}
{"compound": "Cc1cc2nc3n(c2cc1C)CC1CC(C(=O)NCc2cccc(C(F)(F)F)c2)N(C)C31", "note": "(stereo not given)", "Potency": "inconclusive: 13.1 µM [inhibitor, single point]"}
{"compound": "CCCNc1c(N)c(=O)oc2ccccc12", "Potency": "inconclusive: 0.586 µM [inhibitor, full curve, poor fit]"}
{"compound": "Nc1c(N(CCC2=CCCCC2)C(=O)C2CC2)c(=O)[nH]c(=O)n1Cc1ccccc1", "Potency": "inconclusive: 0.657 µM [inhibitor, full curve]"}
{"compound": "O=C(CCn1c(=O)sc2ccccc21)NCCC1=CCCCC1", "Potency": "inactive"}
{"compound": "COc1ccc(CNCCC(c2ccc(OC(C)C)cc2)c2ccccc2OC)cc1", "note": "(stereo not given)", "Potency": "inconclusive: 11.7 µM [inhibitor, single point]"}
{"compound": "Cc1ccc(N=Nc2c(N)n[nH]c2N)cc1", "Potency": "inactive"}
{"compound": "CC1=NN(c2cccc(F)c2)C(=O)/C1=C/c1ccc(N(C)C)cc1", "Potency": "inconclusive: 18.5 µM [inhibitor, single point]"}
{"compound": "COc1ccc(-n2c(O)c(/C(C)=N/N3CCCCCC3)c(=O)[nH]c2=O)cc1", "Potency": "inconclusive: 5.22 µM [inhibitor, partial curve, poor fit]"}
{"compound": "CC(C)(C)C1CCC(OC(=O)c2ccncc2)CC1", "note": "(stereo not given)", "activity change, negative = inhibition": "inactive: 8.76% [at 5.75 µM]"}
{"compound": "Cc1cc(N/N=C/c2ccc(F)cc2)nc(NCc2ccccc2)n1", "Potency": "inconclusive: 1.65 µM [inhibitor, full curve]"}
{"compound": "CC(=O)N1CCN(c2ccc(NC(=S)NC(=O)c3ccc(C)c([N+](=O)[O-])c3)cc2)CC1", "Potency": "inactive"}
{"compound": "Cc1ccccc1NC(=O)Cc1nc(COC(=O)c2ccc(Cl)nc2)cs1", "Potency": "inconclusive: 8.28 µM [inhibitor, single point]"}
{"compound": "COc1cc2cc(CCCOC(=O)CCC(=O)O)oc(=O)c2cc1OC", "Potency": "inconclusive: 2.08 µM [inhibitor, partial curve, poor fit]"}
{"compound": "CO/N=C/c1ccc(Oc2ccc([N+](=O)[O-])cc2[N+](=O)[O-])c(OC)c1", "Potency": "inactive"}
{"compound": "Cc1ccc(C)c(S(=O)(=O)Nc2ccc(C(=O)NCCc3ccccn3)cc2)c1", "Potency": "inconclusive: 4.15 µM [inhibitor, single point]"}
{"compound": "O=C(NCc1c(F)cccc1F)c1cc(COc2c(F)cccc2F)on1", "Potency": "inconclusive: 11.7 µM [inhibitor, single point]"}
{"compound": "O=C(Nc1ccccc1C(=O)NCc1cccnc1)c1ccccc1Cl", "Potency": "inconclusive: 5.22 µM [inhibitor, partial curve, poor fit]"}
{"compound": "CCc1c(C)nc(N)nc1N1N=C1SCC(=O)OC", "Potency": "inconclusive: 0.415 µM [inhibitor, full curve, poor fit]"}
{"compound": "CCOC1(C)OCC(=O)[C@]2(CCC3C4CCC5=CC(=O)C=CC5(C)C4C(=O)CC32C)O1", "note": "(stereo not given in full)", "Potency": "inconclusive: 11.7 µM [inhibitor, single point]"}
{"compound": "O=C1NC(=O)C2C1C(c1cccs1)NN2Cc1ccccc1", "note": "(stereo not given)", "Potency": "inconclusive: 10.4 µM [inhibitor, single point]"}
{"compound": "CC(=O)c1sccc1NC(=O)c1ccccc1C(=O)O", "Potency": "inactive"}
{"compound": "Cc1cc(Cl)c(S(=O)(=O)Nc2cc(S(=O)(=O)N3CCOCC3)ccc2F)cc1OCC(N)=O", "Potency": "inconclusive: 4.15 µM [inhibitor, full curve]"}
